The results in this text go back to PMC7819943, “Rice protein-binding microarrays: a tool to detect cis-acting elements near promoter regions in rice”.

Sequences of proteins named here, by UniProt entry; tags and fusion partners are left off.
UniProt Q0JBA9, entry or part of it: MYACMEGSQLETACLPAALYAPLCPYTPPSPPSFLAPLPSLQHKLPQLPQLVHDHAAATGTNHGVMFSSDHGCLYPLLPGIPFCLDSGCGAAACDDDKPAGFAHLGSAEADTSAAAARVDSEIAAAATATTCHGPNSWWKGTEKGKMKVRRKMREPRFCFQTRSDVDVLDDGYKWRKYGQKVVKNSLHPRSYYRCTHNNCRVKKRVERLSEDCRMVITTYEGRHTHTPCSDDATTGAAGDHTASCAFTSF

This is one part of the list.

The target in the assay is OsWRKY34 (Oryza sativa, UniProt Q0JBA9 1-250). Nature of the assay: protein-binding microarray (RPBM); PBS, 2% BSA, 51.3 ng/ul salmon testes DNA, 50 uM zinc acetate, 200 nM TF, 25 C, 1 h; high values mean tight binding. Conditions: protein: recombinant; tags: N-terminal polyhistidine and DsRed monomer fusion (pET32a); label: CyDye5-dUTP incorporated in the synthesized complementary strand; 3' TTTTT single-stranded linker to array surface; dsDNA, one strand shown. In short, it runs like this: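 Transcription factors were each fused at the N-terminus to a polyhistidine tag plus DsRed and expressed in E. coli BL21-CodonPlus before Ni–NTA purification. Binding to a double-stranded custom Agilent array was carried out with 200 nM protein at 25 °C for 1 h in PBS, 2% BSA, salmon testes DNA and 50 µM zinc acetate. The binding signal is per-feature fluorescence intensity, in arbitrary units, on an Axon 4000B scanner.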
Regarding “GCAGGATATTACACTTCTACATCTTCTTGTGTATGCTTGACGGAGTCACCTAGTGCAG”, the binding signal was 10800 fluorescence intensity (a.u.).

On to “TTTACCTCTCTGCCGGCCTTTGCACGCTTGTAGCCCACCACGGAGTCACCTAGTGCAG”, for which the binding signal is 9670 fluorescence intensity (a.u.).

With “TAAGCCTCACCACCCATGGGTCAACATGTCATTTGACCATCGGAGTCACCTAGTGCAG”, the binding signal was 10700 fluorescence intensity (a.u.).

On to “ACTAGTTTGATGTGTGGTTTAGTTGCAGAGTTCCCTGCAACGGAGTCACCTAGTGCAG”, for which the binding signal is 8090 fluorescence intensity (a.u.).

For “TTTTCCGTCCGCCTTGATCGCTATTGACCTAGCCACGCACCGGAGTCACCTAGTGCAG”, the binding signal was 10100 fluorescence intensity (a.u.).

Regarding “TGCCGTGTTCGTGTGGGTACAGTATCTTGGAAGACAAGGGCGGAGTCACCTAGTGCAG”, the binding signal is 8180 fluorescence intensity (a.u.).

Regarding “GGCTCTTGCGAGTATGCCGATGCTTCAGAACTTGTCCCTGCGGAGTCACCTAGTGCAG”, the binding signal was 9830 fluorescence intensity (a.u.).

In the case of “GCTACATCAGCGGCGGAGGTGGAGGTGGAGGGGTAAGGTGCGGAGTCACCTAGTGCAG”, the binding signal is 11600 fluorescence intensity (a.u.).

Regarding “GGCCACCTTAACGTCGTCGCTCCCGTTGTTGAACACGTACCGGAGTCACCTAGTGCAG”, the binding signal is 11100 fluorescence intensity (a.u.).

Take “AGTTGTAAATCAAATTAAGTTTACTTTGTGTCCCTTTTCTCGGAGTCACCTAGTGCAG”: the binding signal is 10200 fluorescence intensity (a.u.).

With “CATAGAGCCACTTAAGTTTCCTCGTTGTGATACTTTGACACGGAGTCACCTAGTGCAG”, the binding signal is 9640 fluorescence intensity (a.u.).

With “TTCCATTCGTCCATGCCGCCGCCGTAGTCCTCTTCTTCTTCGGAGTCACCTAGTGCAG”, the binding signal is 12900 fluorescence intensity (a.u.).

As to “ACACTATTAATACTTGGTCCCATCTGTCATACACACACTGCGGAGTCACCTAGTGCAG”, the binding signal was 9320 fluorescence intensity (a.u.).

As to “CAAGCGCCATGTGTTCCTCCTCGCCATGGCACCTAATCTCCGGAGTCACCTAGTGCAG”, the binding signal is 8110 fluorescence intensity (a.u.).

Regarding “TTTTCCTGAATGACATAAATGGGTCACACATATATTTTTTCGGAGTCACCTAGTGCAG”, the binding signal was 8560 fluorescence intensity (a.u.).

For “TCTCTCAAATTCTCAACTTTCCATCATATTATATCACATACGGAGTCACCTAGTGCAG”, the binding signal was 8160 fluorescence intensity (a.u.).

On to “GTGGCCGTTGACCAGGGCGCTCTGGCAGCTGTCGGTCGTCCGGAGTCACCTAGTGCAG”, for which the binding signal is 11300 fluorescence intensity (a.u.).

Take “GCTATGTCCCTTTTGCTTATACCTTGGGGCCACACCCTTTCGGAGTCACCTAGTGCAG”: the binding signal is 10700 fluorescence intensity (a.u.).

“GCCGAGATGACACATGCTTTTCATGGCTCCTATGCTATAACGGAGTCACCTAGTGCAG”: the binding signal was 8180 fluorescence intensity (a.u.).

On to “GCCACTTTGCACGCCCGTGCCGCGCCTCGCCTCGCCTCTGCGGAGTCACCTAGTGCAG”, for which the binding signal is 9280 fluorescence intensity (a.u.).

As for “TGCTTTTGTTTCGGTGTGAGGACTAAGTGCCTCTCCTGTACGGAGTCACCTAGTGCAG”, the binding signal is 9440 fluorescence intensity (a.u.).

With “AGTCAACTTTTAGCCCATTTACTTCCAACTAATGAACTTGCGGAGTCACCTAGTGCAG”, the binding signal was 8150 fluorescence intensity (a.u.).

Regarding “CAGTCACTCTCCACCCTTAGCTACAGCTACTACAAGTTGACGGAGTCACCTAGTGCAG”, the binding signal is 9090 fluorescence intensity (a.u.).

Consider “AGATGGTGTTTGGATGGGAGGGATTTATTTTAGTCCCTCTCGGAGTCACCTAGTGCAG”, for which the binding signal was 10200 fluorescence intensity (a.u.).

For “TCTATTGTTCTAAAGCTTTTATCTTACTTGTTTTCTAATTCGGAGTCACCTAGTGCAG”, the binding signal is 10500 fluorescence intensity (a.u.).

In the case of “TTCCCCACATTTTACGGCCAGTTCTTTCTTCTCCGTCGACCGGAGTCACCTAGTGCAG”, the binding signal was 10700 fluorescence intensity (a.u.).

As for “TGAATGCACCATGTCTTTTGCTCCGTCCGTCATAAAAAAACGGAGTCACCTAGTGCAG”, the binding signal was 8950 fluorescence intensity (a.u.).

On to “ACACCTCTCTTTTGCCAACCAAATTGTGATTCTATTTTCCCGGAGTCACCTAGTGCAG”, for which the binding signal was 9000 fluorescence intensity (a.u.).

Take “TCCCGTTGTTGAACACGTACAAATGGCTGCTGCTCGTCGCCGGAGTCACCTAGTGCAG”: the binding signal was 8320 fluorescence intensity (a.u.).

As to “CAGGTTACAAGACATTTTGACTTTGGTCAAAGTCAAATTGCGGAGTCACCTAGTGCAG”, the binding signal was 11200 fluorescence intensity (a.u.).

Take “GCGTCGGGGAGGAGCTCGTGGTGGCAGTGGCCGAGGACGGCGGAGTCACCTAGTGCAG”: the binding signal is 11300 fluorescence intensity (a.u.).

As for “TCCACCGCGTCGCCGACGGCTCCATTACCGTCCCCTAACCCGGAGTCACCTAGTGCAG”, the binding signal was 9140 fluorescence intensity (a.u.).

As to “AATACGCAGATATGTGCTCACTGCCTAGCTACCAGTCTTGCGGAGTCACCTAGTGCAG”, the binding signal was 8230 fluorescence intensity (a.u.).

Regarding “CATGGGCTTTCTTTGTCCTGCATGCCTCCATGCCGATATCCGGAGTCACCTAGTGCAG”, the binding signal is 11200 fluorescence intensity (a.u.).

Regarding “GGGAGGTGGATAAGTGGTGGAGAGAGATGTGAAAGAAAGACGGAGTCACCTAGTGCAG”, the binding signal was 8970 fluorescence intensity (a.u.).

In the case of “GCCAATATGCTCGCCGCCGCCGCCTCCGTCAAGCTCTCCACGGAGTCACCTAGTGCAG”, the binding signal was 9410 fluorescence intensity (a.u.).

As to “CTCGATCCCTTCGAACACCCTTGCGTTTCGCTCTTTCCAACGGAGTCACCTAGTGCAG”, the binding signal is 9400 fluorescence intensity (a.u.).

Take “TAAGAAATTTTGACTTTAGTCAAAGTCAAACTGCTTTAAACGGAGTCACCTAGTGCAG”: the binding signal was 11200 fluorescence intensity (a.u.).

“CCATTCCGCCCACTAGCTTTCTCTCTCTATTTTCTTTTTCCGGAGTCACCTAGTGCAG”: the binding signal is 16800 fluorescence intensity (a.u.).

“TTATCTTGCTGATGGCATATATCCTTCTTGGGCCACATTTCGGAGTCACCTAGTGCAG”: the binding signal was 8240 fluorescence intensity (a.u.).

On to “ACATCGCCTGGGCCATCCAGAAGCTCTCCGGCTTCTGCATCGGAGTCACCTAGTGCAG”, for which the binding signal is 8120 fluorescence intensity (a.u.).

Consider “CACTACTTCTACTACTCGCCGCCACCCAAACCCAAAGCAGCGGAGTCACCTAGTGCAG”, for which the binding signal was 8370 fluorescence intensity (a.u.).
